According to article PMC8918779:
These are yes or no findings as the source states them, for the method shown. Binding seen in cells or lysates may run through a third protein. Some results given as binding are weak or reduced against the parent protein; the word gives no strength.

The chains behind the UniProt entries cited, without tags or fusion partners.
UniProt P53350: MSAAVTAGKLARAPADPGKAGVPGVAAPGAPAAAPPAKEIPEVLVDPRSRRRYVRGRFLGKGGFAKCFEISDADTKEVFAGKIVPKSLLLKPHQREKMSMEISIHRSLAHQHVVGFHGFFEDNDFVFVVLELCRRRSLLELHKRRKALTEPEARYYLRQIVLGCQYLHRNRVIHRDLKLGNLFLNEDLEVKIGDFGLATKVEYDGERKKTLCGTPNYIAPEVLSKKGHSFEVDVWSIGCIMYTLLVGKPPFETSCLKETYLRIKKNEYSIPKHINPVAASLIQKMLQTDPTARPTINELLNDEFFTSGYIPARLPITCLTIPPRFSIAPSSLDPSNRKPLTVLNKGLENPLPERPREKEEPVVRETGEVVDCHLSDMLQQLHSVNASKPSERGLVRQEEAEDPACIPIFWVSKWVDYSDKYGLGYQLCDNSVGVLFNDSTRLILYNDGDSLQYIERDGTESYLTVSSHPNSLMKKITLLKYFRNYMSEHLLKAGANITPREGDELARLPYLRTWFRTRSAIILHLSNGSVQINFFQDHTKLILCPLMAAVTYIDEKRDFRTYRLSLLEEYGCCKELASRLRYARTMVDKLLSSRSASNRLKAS
UniProt Q00536: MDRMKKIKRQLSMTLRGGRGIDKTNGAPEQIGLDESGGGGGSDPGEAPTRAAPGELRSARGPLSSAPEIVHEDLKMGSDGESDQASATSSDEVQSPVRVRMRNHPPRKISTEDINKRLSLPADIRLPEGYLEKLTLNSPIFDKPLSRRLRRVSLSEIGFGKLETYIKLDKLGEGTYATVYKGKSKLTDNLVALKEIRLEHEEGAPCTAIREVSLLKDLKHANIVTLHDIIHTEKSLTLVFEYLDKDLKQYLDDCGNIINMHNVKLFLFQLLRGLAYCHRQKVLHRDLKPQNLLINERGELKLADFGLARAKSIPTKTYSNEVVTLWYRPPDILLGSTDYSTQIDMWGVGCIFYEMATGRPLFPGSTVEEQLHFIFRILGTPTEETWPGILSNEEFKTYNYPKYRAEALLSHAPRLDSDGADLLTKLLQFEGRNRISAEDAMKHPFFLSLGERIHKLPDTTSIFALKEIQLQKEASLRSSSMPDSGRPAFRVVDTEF

Molecular target: HA-tagged wild-type PLK1 (UniProt P53350)
Assay: co-IP; HA-tagged PLK1 (WT, KD or PBD mutant; 1 µg each) transiently transfected in U2OS; PLK1 pulled down by anti-HA antibody on protein A or G sepharose, overnight at 4°C; western blot for endogenous PCTAIRE1

PCTAIRE1 (from UniProt Q00536 1-496)
binding: binds
